According to patent publication US7563590B2, “Methods of quantifying methotrexate metabolites” (Cypress Bioscience Inc., priority 2002, dated 2009):
Some of these results come from one statement about several compounds together. At least one compound was matched to its structure with a doubt left.

Biological target: T1, gamma glutamyl hydrolase (Homo sapiens, UniProt Q92820)
T1 construct: contacting the extract with plasma as a source of gamma glutamyl hydrolase; tissue Sigma P9523; host or cells: reconstituted lyophilized plasma (purchased), mixed with RBC hemolysate from healthy donors
T1 sequence (Q92820 25-318): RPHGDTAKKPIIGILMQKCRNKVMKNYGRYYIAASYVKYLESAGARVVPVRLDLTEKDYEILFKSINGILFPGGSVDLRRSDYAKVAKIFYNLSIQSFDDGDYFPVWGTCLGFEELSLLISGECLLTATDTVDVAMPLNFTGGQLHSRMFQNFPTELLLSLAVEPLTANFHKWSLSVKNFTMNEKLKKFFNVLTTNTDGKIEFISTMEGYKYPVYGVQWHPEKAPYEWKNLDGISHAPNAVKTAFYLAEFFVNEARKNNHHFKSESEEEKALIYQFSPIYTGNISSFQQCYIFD
Assay: Enzymatic conversion of MTXPGs to MTX in RBC extract using plasma as source of gamma glutamyl hydrolase
Format: biochemical
Settings: GGH provided in a plasma fraction
Protocol: MTXPGs were enzymatically converted to MTX by incubation with RBC extract and plasma as follows. RBCs were isolated from healthy donors (Blood bank; San Diego, Calif.) Hemolysates were prepared having 0.88×10^9 RBC per 100 μl. For spiked samples, MTXPG (Schirks Laboratories; Jona, Switzerland) was added to RBC extracts at a final concentration of 1 μM (from stock solutions containing 100 μM MTXPG in 0.1 N potassium hydroxide). Reconstituted plasma was prepared from lyophilized plasma (Sigma, St. Louis, USA; Cat. No. P9523) and 100 μl was added to 50 μl of RBC extract, mixed for 30 seconds, and 100 μl of buffer containing 100 mM potassium phosphate pH 4.5 and 150 mM mercaptoethanol was added. […] Samples were incubated for 12-14 hours, unless otherwise indicated, in the dark at 37° C. After incubation 30 μl of 70% perchloric acid was added to the mixture, vortexed for 15 seconds and centrifuged for 10 minutes. A total volume of 80 μl was injected onto the HPLC system for analysis using the MTX detection system described in Example I.
The percent conversion of MTXPG to MTX was determined by comparing the peak area of MTX formed during the enzymatic conversion at different times with the peak area of MTX spiked in the red blood cells at the same concentration.

Compound: CN(Cc1cnc2nc(N)nc(N)c2n1)c1ccc(C(=O)N[C@@H](CCC(=O)N[C@@H](CCC(=O)O)C(=O)O)C(=O)O)cc1 [MTXPG2]
- conversion to MTX (in about 3 hours (FIG. 4A)): greater than 60%
- conversion to MTX (in about 5 hours (FIG. 4A, 4B)): greater than 90%
